{"sequences": {"note": "Protein sequences, listed by entry. Tags and fused reporters are not part of them. Lines headed by an entry give the natural chain unless they say otherwise; changes in a name come on top.", "UniProt P51450": "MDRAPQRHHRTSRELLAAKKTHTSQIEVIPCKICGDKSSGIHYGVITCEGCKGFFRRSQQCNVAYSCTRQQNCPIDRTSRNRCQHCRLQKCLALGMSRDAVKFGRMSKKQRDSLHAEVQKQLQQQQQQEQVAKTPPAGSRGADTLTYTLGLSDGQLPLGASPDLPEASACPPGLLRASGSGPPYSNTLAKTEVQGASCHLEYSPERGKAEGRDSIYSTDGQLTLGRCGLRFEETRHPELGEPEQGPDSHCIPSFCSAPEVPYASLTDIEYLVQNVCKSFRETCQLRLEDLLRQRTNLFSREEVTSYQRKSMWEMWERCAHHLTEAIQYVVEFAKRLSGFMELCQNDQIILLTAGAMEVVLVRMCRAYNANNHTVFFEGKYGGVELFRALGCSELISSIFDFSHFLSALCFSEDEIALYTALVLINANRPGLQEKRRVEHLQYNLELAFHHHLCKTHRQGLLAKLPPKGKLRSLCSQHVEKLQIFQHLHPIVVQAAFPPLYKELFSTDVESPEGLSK"}, "source": "PubChem BioAssay AID2551", "about": "(National Center for Advancing Translational Sciences (NCATS), 2010)", "note": "The whole screen tested about 310,000 compounds, of which about 17,000 (5.5%) were called active. The inconclusive results got no clear call from the source; some entries with a clear call stand among them for comparison. The call rests on the fitted dose curve; in most records, active means well fitted inhibition curve with a large enough effect; inconclusive means small, poorly fitted or top-dose-only effect, or effect the other way; inactive means no such curve, though single readings can be large or run the other way. Where the call is inconclusive, the potency comes from a doubtful curve fit. On the % scale 0 is the no-effect control and ±100 the full control effect; potency means the concentration at half of the fitted maximal effect.", "data": [{"target": "Nuclear receptor ROR-gamma (Mus musculus) (UniProt P51450)", "assay": "qHTS for inhibitors of ROR gamma transcriptional activity; further: nearly all actives have a fitted effect of over 60% in size", "conditions": "Drosophila S2 Gal4-RORgamma UAS-luciferase reporter, 20 h; activity change, negative = inhibition: at 53.6 µM (top of the series)", "summary_of_the_method": "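Drosophila S2 cells stably expressing Gal4-DBD/mouse RORγ fusion under metallothionein promoter plus UAS-luciferase; compound 1 h, then 700 uM CuSO4 induction for 20 h at ambient temperature; inhibition read as reduced luminescence.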", "values": [{"smiles": "CC(C)(C)c1nnc(NC(=O)c2cccs2)s1", "Potency": "active: 17.8 µM"}, {"smiles": "COc1ccccc1N(CC(=O)NCCc1ccccc1)C(=O)CCC(=O)Nc1cc(C)ccn1", "activity change, negative = inhibition": "inactive: -0.957%"}, {"smiles": "Cc1coc2c1C(=O)C(=O)c1c-2ccc2c(C)cccc12", "Potency": "inconclusive: 10 µM [inhibitor, partial curve, poor fit]"}, {"smiles": "COc1cc(/C=C/c2ccccc2)oc(=O)c1", "activity change, negative = inhibition": "inactive: 9.14%"}, {"smiles": "O=C1Oc2ccccc2C(=O)C1C(CC(O)c1ccc(-c2ccc(Br)cc2)cc1)c1ccccc1", "note": "(stereo unspecified)", "Potency": "inconclusive: 28.2 µM [activator, single point]"}, {"smiles": "Clc1ccccc1Nc1nnc(-c2ccncc2)s1", "Potency": "inconclusive: 10 µM [inhibitor, partial curve, poor fit]"}, {"smiles": "Cc1ccc(S(=O)(=O)N2CCOCC2)cc1C(=O)NCCN1C(=O)S/C(=C\\c2ccccc2Cl)C1=O", "Potency": "inconclusive: 10 µM [inhibitor, partial curve]"}, {"smiles": "COc1ccc(C(=O)NC(CO)c2nnc(SCc3ccc(Cl)c(Cl)c3)n2C)cc1", "note": "(stereo unspecified)", "activity change, negative = inhibition": "inactive: 18.6%"}, {"smiles": "NNc1nc(C(F)(F)F)nc2ccccc12", "Potency": "inconclusive: 11.2 µM [inhibitor, partial curve]"}, {"smiles": "Cc1cc(C)nc(NN2C(=O)C=CC2=O)n1", "Potency": "inconclusive: 31.6 µM [inhibitor, single point]"}, {"smiles": "FC(F)(F)c1cccc(NC(=S)N2CCCC2)c1", "activity change, negative = inhibition": "inactive: 1.75%"}, {"smiles": "CCOc1ccc(N(CC(=O)OC)S(=O)(=O)c2ccc(OC)c(OC)c2)cc1", "activity change, negative = inhibition": "inactive: 7.22% [at 0.365 µM]"}, {"smiles": "COc1ccc(CN2CCN(c3ccc(F)cc3)CC2)c(OC)c1OC", "Potency": "inconclusive: 35.5 µM [activator, single point]"}, {"smiles": "Cc1ccc(OCC(=O)Nc2ccncc2)c(C)c1", "activity change, negative = inhibition": "inactive: 3.94%"}, {"smiles": "C/C=C/c1ccc(OCCn2cncn2)c(OC)c1", "Potency": "inconclusive: 1.41 µM [activator, partial curve, poor fit]"}, {"smiles": "CCn1c(COc2ccc(C)cc2)nnc1SCc1nc2ccccc2[nH]1", "Potency": "active: 12.6 µM"}, {"smiles": "COc1ccc(CN(CC2CCCO2)C(=O)c2cc3sccc3n2C)c(OC)c1", "note": "(stereo unspecified)", "Potency": "inconclusive: 17.8 µM [activator, partial curve]"}, {"smiles": "Cc1ccc(NC(=S)N2CCn3cccc3C2c2cccnc2)cc1", "note": "(stereo unspecified)", "Potency": "inconclusive: 5.01 µM [activator, partial curve]"}, {"smiles": "C=CCN1C(=O)N/C(=C/c2ccc(C)o2)C1=O", "Potency": "active: 5.62 µM"}, {"smiles": "CCOC(CNC(=O)C(=O)Nc1cc2c3c(c1)CCC(=O)N3CCC2)OCC", "activity change, negative = inhibition": "inactive: 0.342%"}, {"smiles": "CCCCOc1ccc(N2C(=O)CC(NCc3ccncc3)C2=O)cc1", "note": "(stereo unspecified)", "Potency": "inconclusive: 35.5 µM [inhibitor, single point]"}, {"smiles": "COc1cc(/C=N/NC(=O)CC2(C)OCCO2)cc(Br)c1O", "activity change, negative = inhibition": "inactive: -7.01%"}, {"smiles": "O=c1cc(CN2CCN(S(=O)(=O)/C=C/c3ccccc3)CC2)c2ccc(O)cc2o1", "Potency": "inconclusive: 14.1 µM [activator, partial curve]"}, {"smiles": "Cc1ccc(C(=O)NCCNc2nc3cc(C)c(C)cc3cc2C)cc1", "activity change, negative = inhibition": "inactive: 11.5%"}, {"smiles": "O=C(NNC(=S)NC1CCCCC1)c1ccccc1Br", "Potency": "active: 1.12 µM"}, {"smiles": "COc1ccc(N2C(=O)CN=C2Nc2cccc(C)c2C)cc1OC", "activity change, negative = inhibition": "inactive: 5.1%"}, {"smiles": "N#CCC(=O)Nc1sc2c(c1C(N)=O)CCCC2", "Potency": "inconclusive: 35.5 µM [activator, partial curve, poor fit]"}, {"smiles": "Cc1cc(C)c2nc(N3CCCN(C(=O)c4cnccn4)CC3)c(C#N)cc2c1", "Potency": "inconclusive: 6.31 µM [inhibitor, single point]"}, {"smiles": "CC(=O)c1ccc(NC(=O)Nc2cccc(Cl)c2)cc1", "Potency": "inconclusive: 1.26 µM [activator, full curve, poor fit]"}, {"smiles": "Nc1c(C=C2C=CC(=O)C=C2)c(=O)nc2snc(SCc3ccccc3)n12", "Potency": "inconclusive: 20 µM [inhibitor, single point]"}, {"smiles": "O=C(O)c1ccccc1-c1ccc(C(F)(F)F)cc1", "activity change, negative = inhibition": "inactive: 3.54%"}, {"smiles": "COc1ccc(OC)c(NC(=O)CN(Cc2ccc(F)cc2)C2CCCCC2)c1", "Potency": "inconclusive: 28.2 µM [inhibitor, single point]"}, {"smiles": "O=C(Cn1cnc2ccccc21)N/N=C/c1ccccc1", "activity change, negative = inhibition": "inactive: -10.7%"}, {"smiles": "Cc1ccc(C(=O)NC(=S)NCC2CCCO2)cc1[N+](=O)[O-]", "note": "(stereo unspecified)", "Potency": "active: 7.08 µM"}, {"smiles": "CCCS(=O)(=O)Nc1cccc(-c2ccc3nnc(C)n3n2)c1", "Potency": "inconclusive: 11.2 µM [inhibitor, single point]"}, {"smiles": "COC(=O)C1=C(C)Nc2nc3ccccc3n2C1c1cc(OC)c(OC)c(OC)c1", "note": "(stereo unspecified)", "Potency": "active: 12.6 µM"}, {"smiles": "O=C(COC(=O)c1cccnc1Nc1ccccc1F)NCc1ccc2c(c1)OCO2", "Potency": "inconclusive: 12.6 µM [inhibitor, single point]"}, {"smiles": "CC(C)(C)C1CCc2sc(-c3nnc(CCl)o3)cc2C1", "note": "(stereo unspecified)", "activity change, negative = inhibition": "inactive: -16.9%"}, {"smiles": "C[C@@]12CC[C@@H]3c4ccc(O)cc4CC[C@H]3[C@H]1C[C@@H](O)[C@H]2O", "activity change, negative = inhibition": "inactive: -26.9% [at 16.9 µM]"}, {"smiles": "CCn1cc(Br)c(C(=O)Nc2cccc(Cl)c2)n1", "Potency": "inconclusive: 2.51 µM [activator, full curve]"}, {"smiles": "O=C(Nc1ccccc1)C(Cc1cccs1)c1nn[nH]n1", "note": "(stereo unspecified)", "activity change, negative = inhibition": "inactive: 5.81%"}, {"smiles": "Cc1cc2occ(CC(=O)NC3=NCCS3)c2cc1C(C)C", "activity change, negative = inhibition": "inactive: -137%"}, {"smiles": "Cc1ccccc1OCCCN1C(=O)C(=O)c2cccc(C)c21", "Potency": "active: 35.5 µM"}, {"smiles": "O=C(O)CCN1C(=O)c2ccc(NC(=O)c3cccs3)cc2C1=O", "activity change, negative = inhibition": "inactive: 9.29%"}, {"smiles": "CC(NC(=O)Cc1ccccc1)c1nc2ccccc2[nH]1", "note": "(stereo unspecified)", "activity change, negative = inhibition": "inactive: 43%"}, {"smiles": "COc1cccc2c1C(=O)C=C(C)C2=O", "Potency": "active: 11.2 µM"}, {"smiles": "Cc1sc(NC(=O)/C=C/c2ccco2)c(C(=O)OC(C)C)c1C", "Potency": "inconclusive: 17.8 µM [inhibitor, single point]"}, {"smiles": "CC12CCC(C(=O)N3CCCc4ccccc43)(CC1=O)C2(C)C", "note": "(stereo unspecified)", "activity change, negative = inhibition": "inactive: -4.31%"}, {"smiles": "O=C(CN1CC[n+]2c(-c3cccs3)csc21)c1ccc(Br)cc1", "Potency": "inconclusive: 0.794 µM [activator, single point]"}, {"smiles": "CCCCn1c(N)c(S(=O)(=O)c2ccc(C)cc2)c2nc3ccccc3nc21", "Potency": "inconclusive: 15.8 µM [activator, partial curve]"}, {"smiles": "CNC(=O)C1(C(F)(F)F)C/C(=C\\CCO)CCCO1", "note": "(stereo unspecified)", "Potency": "inactive"}]}]}
